Record: PubChem BioAssay AID652259 (Drosophila RNAi Screening Center, 2013)
In all, the deposit lists about 22,000 reagents; shown is an unselected part of those with a known target gene and a result. Over the whole deposit, 233 (1.1%) got an active call. 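Light values are raw, unnormalised plate reads; the ratio scores behind the reporter calls were not deposited.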 Not stated in the record: the amount of reagent, the time to read-out, the dose of the treatment.

Assay: 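Knock-downs that push a Wingless-driven reporter up or down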 (primary screen)
Cells: Drosophila clone 8 imaginal disc epithelial cells
Reagent: long dsRNA against Drosophila genes
Treatment: pathway stimulated by co-transfected Wingless expression plasmid
Measurement: 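Firefly luciferase from a tcf-site Wingless reporter, measured alongside co-transfected Renilla luciferase that tracks transfection; pathway stimulated by a Wingless plasmid; the firefly-to-Renilla ratio is not deposited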
Direction: firefly reporter light: higher = more Wg reporter light, before normalisation; Renilla control light: higher = more transfected or surviving cells
Active means: 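Strong candidates differ from their plate mean by at least two out of four per-plate statistical tests; weak candidates meet just one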
Calls: active = candidate regulator (raises or lowers reporter); inactive = not a candidate

The opening 2 entries as a preview:
Uch-L5R (Uch-L5-related) [DRSC19825] | firefly reporter light, replicate 1: 18116; Renilla control light, replicate 1: 8634; Outcome: inactive
CG13203 [DRSC06327] | firefly reporter light, replicate 1: 8468; Renilla control light, replicate 1: 2765; Outcome: inactive

Main list, from the first entry:
Uch-L5R (Uch-L5-related) [DRSC19825] | firefly reporter light, replicate 1: 18116; Renilla control light, replicate 1: 8634; Outcome: inactive
CG13203 [DRSC06327] | firefly reporter light, replicate 1: 8468; Renilla control light, replicate 1: 2765; Outcome: inactive
Jon66Cii (Jonah 66Cii) [DRSC10778] | firefly reporter light, replicate 1: 1961; firefly reporter light, replicate 2: 9543; Renilla control light, replicate 1: 852; Renilla control light, replicate 2: 3504; Outcome: inactive
Tpc1 [DRSC15614] | firefly reporter light, replicate 1: 10522; Renilla control light, replicate 1: 3330; Outcome: inactive
Tpc1 [DRSC16074] | firefly reporter light, replicate 1: 5984; Renilla control light, replicate 1: 2048; Outcome: inactive
Karl [DRSC19883] | firefly reporter light, replicate 1: 2395; firefly reporter light, replicate 2: 6619; Renilla control light, replicate 1: 946; Renilla control light, replicate 2: 2280; Outcome: inactive
CG10898 [DRSC14279] | firefly reporter light, replicate 1: 5955; Renilla control light, replicate 1: 2450; Outcome: inactive
CG15210 [DRSC19656] | firefly reporter light, replicate 1: 24069; Renilla control light, replicate 1: 10418; Outcome: inactive
CG8272 [DRSC07134] | firefly reporter light, replicate 1: 12624; Renilla control light, replicate 1: 3780; Outcome: inactive
Gr66a (Gustatory receptor 66a) [DRSC10783] | firefly reporter light, replicate 1: 1368; firefly reporter light, replicate 2: 5836; Renilla control light, replicate 1: 1036; Renilla control light, replicate 2: 3223; Outcome: inactive
Ppi1 (Protein phosphatase 1c interacting protein 1) [DRSC15421] | firefly reporter light, replicate 1: 1478; firefly reporter light, replicate 2: 4178; Renilla control light, replicate 1: 1106; Renilla control light, replicate 2: 1856; Outcome: inactive
Arl5 (ADP-ribosylation factor-like 5) [DRSC10785] | firefly reporter light, replicate 1: 6577; Renilla control light, replicate 1: 2138; Outcome: inactive
Mkk4 (MAP kinase kinase 4) [DRSC16739] | firefly reporter light, replicate 1: 11211; Renilla control light, replicate 1: 2477; Outcome: inactive
CG9029 [DRSC03129] | firefly reporter light, replicate 1: 2642; firefly reporter light, replicate 2: 8264; Renilla control light, replicate 1: 1210; Renilla control light, replicate 2: 2340; Outcome: inactive
CR14798 (pseudo) [DRSC17956] | firefly reporter light, replicate 1: 26440; Renilla control light, replicate 1: 18477; Outcome: inactive
TotE (Turandot E) [DRSC21355] | firefly reporter light, replicate 1: 4.38e5; firefly reporter light, replicate 2: 4.33e5; Renilla control light, replicate 1: 1.54e5; Renilla control light, replicate 2: 1.37e5; Outcome: inactive
Ntl (Neurotransmitter transporter-like) [DRSC03003] | firefly reporter light, replicate 1: 4426; Renilla control light, replicate 1: 1778; Outcome: inactive
